Among the data in the supplement of paper PMC10849652 are log2 fold change values, retold here.

Sequences of proteins named here, by UniProt entry; tags and fusion partners are left off. A change or cut given only in a name is not applied to a line headed by its entry.
UniProt Q9NX00: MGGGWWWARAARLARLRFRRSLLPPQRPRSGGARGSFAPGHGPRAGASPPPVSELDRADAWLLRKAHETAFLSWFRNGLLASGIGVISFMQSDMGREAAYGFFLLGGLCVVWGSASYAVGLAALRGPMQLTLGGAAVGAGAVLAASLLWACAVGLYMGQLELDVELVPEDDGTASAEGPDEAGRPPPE
UniProt Q8TDI8: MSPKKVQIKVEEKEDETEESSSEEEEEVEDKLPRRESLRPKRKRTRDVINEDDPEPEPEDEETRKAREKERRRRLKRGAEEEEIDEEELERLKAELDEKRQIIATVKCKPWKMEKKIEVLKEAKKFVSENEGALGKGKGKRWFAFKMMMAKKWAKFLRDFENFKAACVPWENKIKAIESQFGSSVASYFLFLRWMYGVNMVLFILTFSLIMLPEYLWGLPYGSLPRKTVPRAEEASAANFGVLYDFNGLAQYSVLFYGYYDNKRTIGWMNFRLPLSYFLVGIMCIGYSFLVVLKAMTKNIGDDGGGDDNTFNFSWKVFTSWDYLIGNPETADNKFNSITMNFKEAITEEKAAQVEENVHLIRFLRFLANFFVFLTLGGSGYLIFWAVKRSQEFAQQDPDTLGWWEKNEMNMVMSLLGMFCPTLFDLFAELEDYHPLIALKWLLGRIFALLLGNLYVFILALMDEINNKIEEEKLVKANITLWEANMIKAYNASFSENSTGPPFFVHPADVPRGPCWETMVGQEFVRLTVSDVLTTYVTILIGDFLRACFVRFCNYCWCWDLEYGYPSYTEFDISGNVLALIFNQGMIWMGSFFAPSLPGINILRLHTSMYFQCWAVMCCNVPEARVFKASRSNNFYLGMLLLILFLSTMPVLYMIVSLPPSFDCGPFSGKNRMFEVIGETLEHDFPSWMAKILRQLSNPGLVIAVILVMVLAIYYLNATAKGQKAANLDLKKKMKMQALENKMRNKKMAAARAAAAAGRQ
UniProt O00142: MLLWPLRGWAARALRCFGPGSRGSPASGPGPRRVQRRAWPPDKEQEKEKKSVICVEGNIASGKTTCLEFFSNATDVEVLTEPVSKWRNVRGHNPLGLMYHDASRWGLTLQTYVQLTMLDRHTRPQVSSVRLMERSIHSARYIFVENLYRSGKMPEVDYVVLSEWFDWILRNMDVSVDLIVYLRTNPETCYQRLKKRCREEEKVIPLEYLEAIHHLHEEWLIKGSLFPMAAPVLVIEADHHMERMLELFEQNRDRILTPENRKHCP
UniProt Q9H5L6: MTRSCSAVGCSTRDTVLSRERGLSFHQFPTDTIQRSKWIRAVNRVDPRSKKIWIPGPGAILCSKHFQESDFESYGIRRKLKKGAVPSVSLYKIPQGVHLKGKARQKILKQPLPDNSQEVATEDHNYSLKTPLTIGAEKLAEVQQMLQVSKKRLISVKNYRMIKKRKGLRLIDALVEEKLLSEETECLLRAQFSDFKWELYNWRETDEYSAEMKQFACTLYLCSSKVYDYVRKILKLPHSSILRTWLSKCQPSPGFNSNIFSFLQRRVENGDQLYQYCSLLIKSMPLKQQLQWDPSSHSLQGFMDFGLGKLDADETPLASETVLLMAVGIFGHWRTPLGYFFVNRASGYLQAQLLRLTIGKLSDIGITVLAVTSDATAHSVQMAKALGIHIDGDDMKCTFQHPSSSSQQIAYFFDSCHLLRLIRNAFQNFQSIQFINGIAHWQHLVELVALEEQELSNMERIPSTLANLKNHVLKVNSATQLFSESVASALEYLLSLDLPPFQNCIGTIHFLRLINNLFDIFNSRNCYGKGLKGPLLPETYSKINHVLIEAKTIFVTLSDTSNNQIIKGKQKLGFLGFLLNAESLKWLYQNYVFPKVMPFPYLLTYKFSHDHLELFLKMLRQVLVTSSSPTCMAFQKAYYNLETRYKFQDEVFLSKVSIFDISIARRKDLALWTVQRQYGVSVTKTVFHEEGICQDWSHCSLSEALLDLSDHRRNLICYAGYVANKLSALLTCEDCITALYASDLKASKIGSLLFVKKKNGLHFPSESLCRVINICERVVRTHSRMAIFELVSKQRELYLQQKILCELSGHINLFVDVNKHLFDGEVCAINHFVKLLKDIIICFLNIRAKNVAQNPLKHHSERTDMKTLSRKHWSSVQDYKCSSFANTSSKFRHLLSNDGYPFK
UniProt Q9Y5L4: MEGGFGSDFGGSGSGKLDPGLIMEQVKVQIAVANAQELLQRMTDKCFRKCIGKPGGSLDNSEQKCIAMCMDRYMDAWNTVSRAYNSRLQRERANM
UniProt Q13445: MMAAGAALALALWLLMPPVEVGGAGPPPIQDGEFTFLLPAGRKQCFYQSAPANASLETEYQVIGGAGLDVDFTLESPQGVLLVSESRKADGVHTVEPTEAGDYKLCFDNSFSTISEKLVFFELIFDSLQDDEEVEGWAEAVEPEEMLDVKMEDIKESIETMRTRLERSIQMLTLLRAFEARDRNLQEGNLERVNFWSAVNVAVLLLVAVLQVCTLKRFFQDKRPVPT
UniProt Q8N131: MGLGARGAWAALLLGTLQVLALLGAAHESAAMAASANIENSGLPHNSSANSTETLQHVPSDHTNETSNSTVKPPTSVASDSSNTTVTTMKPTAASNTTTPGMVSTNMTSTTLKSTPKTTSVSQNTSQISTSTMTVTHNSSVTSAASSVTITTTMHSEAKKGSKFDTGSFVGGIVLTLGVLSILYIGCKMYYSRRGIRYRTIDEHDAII
UniProt Q96EK4, whole entry, looked up: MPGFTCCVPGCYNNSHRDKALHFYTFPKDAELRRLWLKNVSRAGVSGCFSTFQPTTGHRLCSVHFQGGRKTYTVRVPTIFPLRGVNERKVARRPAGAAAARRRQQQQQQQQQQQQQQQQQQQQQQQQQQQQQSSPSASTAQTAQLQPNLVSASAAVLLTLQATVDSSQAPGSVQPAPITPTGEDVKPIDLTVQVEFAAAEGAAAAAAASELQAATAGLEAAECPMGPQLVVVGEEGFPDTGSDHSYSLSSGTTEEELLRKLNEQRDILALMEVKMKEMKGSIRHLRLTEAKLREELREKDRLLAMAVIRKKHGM
UniProt Q6I9Y2: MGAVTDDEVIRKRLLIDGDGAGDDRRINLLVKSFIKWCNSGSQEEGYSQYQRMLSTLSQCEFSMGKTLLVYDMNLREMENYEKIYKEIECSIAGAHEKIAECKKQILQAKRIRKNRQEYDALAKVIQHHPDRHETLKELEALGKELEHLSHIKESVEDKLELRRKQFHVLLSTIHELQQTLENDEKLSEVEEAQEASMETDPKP
UniProt P04183: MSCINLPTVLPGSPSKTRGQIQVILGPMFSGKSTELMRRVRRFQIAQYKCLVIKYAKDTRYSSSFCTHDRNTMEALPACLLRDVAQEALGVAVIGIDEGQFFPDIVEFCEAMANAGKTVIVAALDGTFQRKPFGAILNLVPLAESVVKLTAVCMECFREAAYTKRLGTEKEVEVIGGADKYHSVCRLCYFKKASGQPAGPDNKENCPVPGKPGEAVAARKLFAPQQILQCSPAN
UniProt Q8TBQ9: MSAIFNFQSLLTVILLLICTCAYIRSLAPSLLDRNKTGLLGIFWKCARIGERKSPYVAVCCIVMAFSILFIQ
UniProt Q9P0S9: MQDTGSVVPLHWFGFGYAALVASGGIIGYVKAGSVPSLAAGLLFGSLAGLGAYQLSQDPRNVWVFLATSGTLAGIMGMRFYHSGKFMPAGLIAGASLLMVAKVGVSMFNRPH
UniProt Q8NDZ6: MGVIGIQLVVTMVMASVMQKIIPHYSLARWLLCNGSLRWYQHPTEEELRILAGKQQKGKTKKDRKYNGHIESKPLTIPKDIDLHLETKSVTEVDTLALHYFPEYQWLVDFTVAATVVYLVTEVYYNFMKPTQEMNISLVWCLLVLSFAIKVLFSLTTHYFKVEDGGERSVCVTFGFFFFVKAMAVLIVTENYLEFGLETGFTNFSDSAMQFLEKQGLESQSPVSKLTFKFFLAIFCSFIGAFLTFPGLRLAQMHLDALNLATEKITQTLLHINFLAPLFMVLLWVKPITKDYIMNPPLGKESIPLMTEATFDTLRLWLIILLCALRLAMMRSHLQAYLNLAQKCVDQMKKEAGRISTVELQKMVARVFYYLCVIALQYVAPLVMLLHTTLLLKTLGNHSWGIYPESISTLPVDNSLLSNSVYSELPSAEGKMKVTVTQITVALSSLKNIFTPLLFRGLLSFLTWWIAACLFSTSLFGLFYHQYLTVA
UniProt Q96AN5: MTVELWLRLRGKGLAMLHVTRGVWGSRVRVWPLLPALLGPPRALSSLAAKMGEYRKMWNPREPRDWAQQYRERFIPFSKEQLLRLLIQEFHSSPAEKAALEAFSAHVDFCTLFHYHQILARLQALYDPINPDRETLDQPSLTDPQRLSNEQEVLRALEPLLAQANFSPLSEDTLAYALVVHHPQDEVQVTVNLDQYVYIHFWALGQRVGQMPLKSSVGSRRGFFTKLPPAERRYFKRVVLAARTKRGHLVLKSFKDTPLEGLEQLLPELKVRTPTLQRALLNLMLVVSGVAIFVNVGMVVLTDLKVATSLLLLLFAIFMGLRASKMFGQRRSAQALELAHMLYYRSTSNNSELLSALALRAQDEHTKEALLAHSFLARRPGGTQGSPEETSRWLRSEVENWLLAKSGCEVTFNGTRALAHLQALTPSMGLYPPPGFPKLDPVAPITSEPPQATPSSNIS
UniProt P21980: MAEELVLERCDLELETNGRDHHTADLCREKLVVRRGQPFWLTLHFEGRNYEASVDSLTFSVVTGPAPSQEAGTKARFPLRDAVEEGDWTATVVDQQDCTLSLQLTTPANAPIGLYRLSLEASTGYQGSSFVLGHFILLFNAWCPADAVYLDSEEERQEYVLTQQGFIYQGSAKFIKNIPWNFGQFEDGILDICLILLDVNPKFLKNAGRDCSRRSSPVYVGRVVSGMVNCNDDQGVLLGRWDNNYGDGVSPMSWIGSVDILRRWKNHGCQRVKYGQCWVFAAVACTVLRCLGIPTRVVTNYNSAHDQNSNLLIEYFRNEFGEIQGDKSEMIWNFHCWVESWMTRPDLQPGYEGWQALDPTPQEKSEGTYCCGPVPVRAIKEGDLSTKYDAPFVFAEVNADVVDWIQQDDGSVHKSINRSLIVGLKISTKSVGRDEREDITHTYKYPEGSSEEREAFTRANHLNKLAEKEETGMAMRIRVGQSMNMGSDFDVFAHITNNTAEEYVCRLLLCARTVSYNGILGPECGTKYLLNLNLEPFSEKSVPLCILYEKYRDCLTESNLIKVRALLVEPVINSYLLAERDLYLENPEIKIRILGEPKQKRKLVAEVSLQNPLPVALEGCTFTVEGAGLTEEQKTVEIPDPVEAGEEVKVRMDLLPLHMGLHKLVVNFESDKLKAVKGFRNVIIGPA
UniProt P62072: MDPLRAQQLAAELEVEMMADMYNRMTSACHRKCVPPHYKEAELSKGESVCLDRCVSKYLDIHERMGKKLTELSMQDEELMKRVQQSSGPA
UniProt Q7Z7H5: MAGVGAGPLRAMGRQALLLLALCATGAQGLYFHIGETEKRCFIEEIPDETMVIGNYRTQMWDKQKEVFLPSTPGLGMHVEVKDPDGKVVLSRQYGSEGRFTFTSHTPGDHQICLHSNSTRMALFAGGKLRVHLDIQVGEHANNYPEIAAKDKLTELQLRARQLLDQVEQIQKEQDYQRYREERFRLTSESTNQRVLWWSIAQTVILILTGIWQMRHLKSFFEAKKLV
UniProt O15321, whole entry, looked up: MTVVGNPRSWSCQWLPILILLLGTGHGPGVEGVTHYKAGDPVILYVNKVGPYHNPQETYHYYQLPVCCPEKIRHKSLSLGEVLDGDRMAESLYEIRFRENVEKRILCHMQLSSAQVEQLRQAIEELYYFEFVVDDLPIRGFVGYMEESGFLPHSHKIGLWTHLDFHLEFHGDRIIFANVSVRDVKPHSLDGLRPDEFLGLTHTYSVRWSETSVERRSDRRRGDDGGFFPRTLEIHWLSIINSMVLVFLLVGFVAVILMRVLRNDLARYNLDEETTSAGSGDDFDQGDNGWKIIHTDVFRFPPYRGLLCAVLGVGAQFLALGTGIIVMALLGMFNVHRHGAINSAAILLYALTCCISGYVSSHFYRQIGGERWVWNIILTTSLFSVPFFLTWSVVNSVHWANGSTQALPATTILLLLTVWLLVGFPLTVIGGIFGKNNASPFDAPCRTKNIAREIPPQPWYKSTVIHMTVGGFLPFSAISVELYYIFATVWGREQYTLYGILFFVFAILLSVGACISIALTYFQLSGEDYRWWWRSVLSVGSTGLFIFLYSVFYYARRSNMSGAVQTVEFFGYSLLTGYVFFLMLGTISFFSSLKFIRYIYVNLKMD
UniProt O43493: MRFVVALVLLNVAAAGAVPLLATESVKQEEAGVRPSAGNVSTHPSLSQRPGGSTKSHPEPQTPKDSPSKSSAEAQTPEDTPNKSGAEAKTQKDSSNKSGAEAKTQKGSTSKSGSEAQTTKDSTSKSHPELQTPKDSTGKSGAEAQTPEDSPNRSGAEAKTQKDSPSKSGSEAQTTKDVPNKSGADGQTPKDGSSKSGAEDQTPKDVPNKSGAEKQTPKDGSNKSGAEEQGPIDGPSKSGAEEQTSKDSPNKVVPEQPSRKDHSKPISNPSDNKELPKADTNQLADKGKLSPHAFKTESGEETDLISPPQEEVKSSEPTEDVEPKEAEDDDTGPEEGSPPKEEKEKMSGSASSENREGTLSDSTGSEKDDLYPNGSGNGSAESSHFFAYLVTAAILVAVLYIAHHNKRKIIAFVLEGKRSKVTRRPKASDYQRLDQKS

The other results are listed elsewhere or left out.

Compound in the first experiment: CC[C@@H]1C(=O)N(C)c2cnc(Nc3ccc(C(=O)NC4CCN(C)CC4)cc3OC)nc2N1C1CCCC1
Nature of the experiment: log2 fold change, soluble protein after heating vs DMSO (PISA); higher = thermal stabilisation; K562 lysate, 10 uM; active = over 0.2 and 3.5 SD of the protein, either way, in both replicates (recomputed). The method, boiled down:
(§1)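 Log-two fold change in thermal stability relative to solvent controls is reported from duplicates. For each sample, crude K562 extract from dounce-homogenised pellets in PBS pH 7.4 with 1 mM MgCl2, at 1 mg/mL protein, was treated with 10 μM compound for 30 min. Aliquots heated for 3 min across 48°C-58°C were pooled, brought to 0.5% NP-40 at 4°C and cleared at 21,000xg for 90 min. The supernatant was quantified by TMTpro 16plex LC-MS/MS with channel sums equalised.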
Take TMCO3 (UniProt Q6UWJ1): the log2 fold change is inactive: 0.12.

For the target TMEM160 (UniProt Q9NX00), the log2 fold change is inactive: -0.104.

With TIGAR (UniProt Q9NQ88), the log2 fold change is inactive: 0.073.

For the target TMC1 (UniProt Q8TDI8), the log2 fold change is inactive: -0.164.

Take TIMM44 (UniProt O43615): the log2 fold change was inactive: -0.006.

Consider TK2 isoform 6 (UniProt O00142), for which the log2 fold change was inactive: 0.07.

For TK1 (UniProt K7ERV3), the log2 fold change was inactive: -0.105.

As to THAP9 (UniProt Q9H5L6), the log2 fold change was inactive: 0.309.

Turning to TIMM13 (UniProt Q9Y5L4), the log2 fold change was inactive: 0.028.

On to TM7SF3 (UniProt Q9NS93), for which the log2 fold change was inactive: -0.052.

For the target TMED1 (UniProt Q13445), the log2 fold change is inactive: 0.014.

In the case of TMEM123 (UniProt Q8N131), the log2 fold change was inactive: -0.056.

As to TIMM21 (UniProt Q9BVV7), the log2 fold change was inactive: -0.049.

For the target TMEM120B (UniProt A0PK00), the log2 fold change is inactive: -0.025.

As to TM6SF1 (UniProt Q9BZW5), the log2 fold change was inactive: 0.105.

Consider THAP11 (UniProt Q96EK4), for which the log2 fold change was inactive: 0.025.

For THOC7 (UniProt Q6I9Y2), the log2 fold change is inactive: -0.02.

Turning to TKFC (UniProt Q3LXA3), the log2 fold change is inactive: -0.028.

For TMEM181 (UniProt Q9P2C4), the log2 fold change is inactive: 0.091.

On to TK1 (UniProt P04183), for which the log2 fold change was inactive: 0.009.

In the case of TMEM167A (UniProt Q8TBQ9), the log2 fold change is inactive: -0.029.

For the target TMEM14C (UniProt Q9P0S9), the log2 fold change was inactive: 0.129.

On to TMEM161B (UniProt Q8NDZ6), for which the log2 fold change was inactive: -0.073.

Turning to TMEM143 (UniProt Q96AN5), the log2 fold change is inactive: -0.035.

TLR9 isoform 4 (UniProt Q9NR96): the log2 fold change was inactive: 0.189.

In the case of TMEM177 (UniProt Q53S58), the log2 fold change is inactive: -0.005.

In the case of TGM2 (UniProt P21980), the log2 fold change was inactive: -0.032.

Take TIMM10 (UniProt P62072): the log2 fold change was inactive: -0.216.

TMED4 (UniProt Q7Z7H5): the log2 fold change is inactive: -0.013.

Regarding TM9SF1 (UniProt O15321), the log2 fold change was inactive: -0.089.

In the case of TMEM167B (UniProt Q9NRX6), the log2 fold change was inactive: 0.053.

TMEM127 (UniProt O75204): the log2 fold change was inactive: -0.05.

On to TKT isoform 2 (UniProt P29401), for which the log2 fold change is inactive: 0.011.

As to TGOLN2 isoform 7 (UniProt O43493), the log2 fold change was inactive: 0.05.

Regarding TIAL1 isoform 2 (UniProt Q01085), the log2 fold change was inactive: 0.072.

Compound in a further experiment: CC[C@@H]1C(=O)N(C)c2cnc(Nc3ccc(C(=O)N[C@H]4CC[C@H](N5CCN(CC6CC6)CC5)CC4)cc3OC)nc2N1C(C)C [volasertib]
Described as above. The procedure, abridged:
as §1
Consider TMEM160 (UniProt Q9NX00), for which the log2 fold change was inactive: -0.027.

For TMC1 (UniProt Q8TDI8), the log2 fold change is inactive: -0.021.

With TIMM44 (UniProt O43615), the log2 fold change was inactive: -0.034.

On to TK2 isoform 6 (UniProt O00142), for which the log2 fold change is inactive: 0.051.

Consider THAP9 (UniProt Q9H5L6), for which the log2 fold change was inactive: 0.088.

In the case of TIMM13 (UniProt Q9Y5L4), the log2 fold change is inactive: 0.027.

As for TMED1 (UniProt Q13445), the log2 fold change was inactive: -0.022.

Consider TMEM123 (UniProt Q8N131), for which the log2 fold change was inactive: 0.013.

Regarding TIMM21 (UniProt Q9BVV7), the log2 fold change was inactive: -0.025.

Turning to TMEM120B (UniProt A0PK00), the log2 fold change was inactive: -0.117.

For TMC6 (UniProt Q7Z403), the log2 fold change is inactive: 0.133.

Consider TM6SF1 (UniProt Q9BZW5), for which the log2 fold change was inactive: 0.012.

Take THAP11 (UniProt Q96EK4): the log2 fold change is inactive: 0.081.

For THOC7 (UniProt Q6I9Y2), the log2 fold change is inactive: 0.029.

For the target TKFC (UniProt Q3LXA3), the log2 fold change was inactive: 0.023.

On to TMEM181 (UniProt Q9P2C4), for which the log2 fold change is inactive: 0.036.

Consider TK1 (UniProt P04183), for which the log2 fold change is inactive: 0.031.

For the target TMEM167A (UniProt Q8TBQ9), the log2 fold change is inactive: -0.001.

TMEM14C (UniProt Q9P0S9): the log2 fold change is inactive: 0.045.

Regarding TMEM161B (UniProt Q8NDZ6), the log2 fold change is inactive: -0.055.

TMEM143 (UniProt Q96AN5): the log2 fold change is inactive: -0.077.

On to TLR9 isoform 4 (UniProt Q9NR96), for which the log2 fold change was inactive: 0.011.

Consider TMEM177 (UniProt Q53S58), for which the log2 fold change was inactive: -0.076.

For TGM2 (UniProt P21980), the log2 fold change is inactive: 0.008.

In the case of TIMM10 (UniProt P62072), the log2 fold change was inactive: -0.007.

On to TMEM141 (UniProt Q96I45), for which the log2 fold change is inactive: 0.016.

As for TMED4 (UniProt Q7Z7H5), the log2 fold change was inactive: 0.044.

As to TM9SF1 (UniProt O15321), the log2 fold change is inactive: 0.028.

For the target TMEM167B (UniProt Q9NRX6), the log2 fold change was inactive: 0.038.

In the case of TKT isoform 2 (UniProt P29401), the log2 fold change is inactive: 0.032.

Take TGOLN2 isoform 7 (UniProt O43493): the log2 fold change was inactive: 0.035.

TIAL1 isoform 2 (UniProt Q01085): the log2 fold change was inactive: 0.005.

Compound in a further experiment: CCn1c(C(=O)N(C2CC2)C2CC2)cc2c3c(ncn3C)c(Nc3cc(C)n(C)n3)nc21
The description is as above. The procedure, abridged:
as §1
In the case of TMEM160 (UniProt Q9NX00), the log2 fold change is inactive: 0.06.

For the target TIGAR (UniProt Q9NQ88), the log2 fold change was inactive: -0.029.

Turning to TMC1 (UniProt Q8TDI8), the log2 fold change was inactive: -0.059.

In the case of TIMM44 (UniProt O43615), the log2 fold change was inactive: 0.022.

Take TK2 isoform 6 (UniProt O00142): the log2 fold change is inactive: -0.153.

On to TK1 (UniProt K7ERV3), for which the log2 fold change is inactive: 0.049.

Regarding THAP9 (UniProt Q9H5L6), the log2 fold change is inactive: -0.401.

As for TIMM13 (UniProt Q9Y5L4), the log2 fold change was inactive: 0.063.

As for TIMM10B (UniProt Q9Y5J6), the log2 fold change is inactive: 0.045.

With TM7SF3 (UniProt Q9NS93), the log2 fold change was inactive: -0.012.

On to TMED1 (UniProt Q13445), for which the log2 fold change was inactive: 0.051.

For the target TMEM123 (UniProt Q8N131), the log2 fold change was inactive: 0.078.

With TIMM21 (UniProt Q9BVV7), the log2 fold change is inactive: 0.049.

Take TMC6 (UniProt Q7Z403): the log2 fold change was inactive: -0.012.

THAP11 (UniProt Q96EK4): the log2 fold change is inactive: -0.118.

As to THOC7 (UniProt Q6I9Y2), the log2 fold change is inactive: 0.007.

For TKFC (UniProt Q3LXA3), the log2 fold change was inactive: 0.006.

TMEM181 (UniProt Q9P2C4): the log2 fold change was inactive: 0.025.

Take TK1 (UniProt P04183): the log2 fold change is inactive: -0.008.

For TMEM167A (UniProt Q8TBQ9), the log2 fold change is inactive: 0.004.

As for TMEM14C (UniProt Q9P0S9), the log2 fold change was inactive: -0.053.

For TJP1 (UniProt G3V1L9), the log2 fold change was inactive: -0.021.

TMEM161B (UniProt Q8NDZ6): the log2 fold change was inactive: -0.028.

For TMEM143 (UniProt Q96AN5), the log2 fold change is inactive: -0.152.

Take TLR9 isoform 4 (UniProt Q9NR96): the log2 fold change is inactive: 0.017.

For TMEM177 (UniProt Q53S58), the log2 fold change is inactive: 0.078.

As to TGM2 (UniProt P21980), the log2 fold change is inactive: 0.004.

As for TIMM10 (UniProt P62072), the log2 fold change is inactive: 0.013.

For TMEM141 (UniProt Q96I45), the log2 fold change is inactive: -0.002.

TMED4 (UniProt Q7Z7H5): the log2 fold change is inactive: -0.017.

Turning to TM9SF1 (UniProt O15321), the log2 fold change is inactive: 0.014.

Take TMEM167B (UniProt Q9NRX6): the log2 fold change is inactive: -0.028.

As to TKT isoform 2 (UniProt P29401), the log2 fold change was inactive: -0.022.

Take TGOLN2 isoform 7 (UniProt O43493): the log2 fold change was inactive: -0.094.

With TIAL1 isoform 2 (UniProt Q01085), the log2 fold change is inactive: 0.002.
